The list shows a part of the results.
The compounds below were run on T1, CTL2-GFP (C. trachomatis L2/434/Bu, GFP-expressing). Conditions: bulk GFP, single well; 28.5 h, 10 µM; inhibitor.
T1 construct: L2/434/Bu, GFP-expressing
Parameters: species or system HeLa; Intracellular C. trachomatis growth in HeLa cells, bulk GFP fluorescence relative to DMSO

Structure (SMILES) | % of control remaining [%]
C(=N\c1ccc(-c2nc3ccc(/N=C/c4ccncc4)cc3[nH]2)cc1)/c1ccncc1 [CBK261681] | 92.434
Cc1ccc(NC(=O)Cn2nc(C)c([N+](=O)[O-])c2C)cc1Cl [CBK268336] | 154.51
O=C(O)c1cc(NC(=O)c2cccc(Oc3ccc([N+](=O)[O-])cc3)c2)cc(C(=O)O)c1 [CBK263528] | 125.379
CN1CCN(c2ccc(NC(=O)c3ccc(OCc4ccccc4)cc3)cc2)CC1 [CBK266124] | 197.568
Cc1ncccc1C(=O)NC(CC(C)C)c1nnc2n1CCNCC2 (stereo not drawn) [CBK307348] | 194.053
O=c1[nH]c2cc3nn[nH]c3cc2[nH]1 [CBK018154] | 93.6873
COc1ccc(C(C)c2cc3c(cc2OCC(=O)O)OCO3)cc1 (stereo not drawn) [CBK200108] | 104.917
C[C@H](c1ccccc1)n1c(=O)[nH]c2ncc(-c3cccc(C(=O)NCCN(C)C)c3)nc21 [CBK064204] | 144.504
O=C1CCC(=O)N1CCOc1nccnc1N1CCN(Cc2ccc(Cl)cc2)CC1 [CBK084290] | 108.097
O=C(C1=C(O)C(=O)N(Cc2cccnc2)C1c1cccc(Oc2ccccc2)c1)c1ccc(Cl)cc1 (stereo not drawn) [CBK264698] | 100
CCOc1ccc(S(=O)(=O)N2CCCCC2)cc1-c1nc(=O)c2c([nH]1)c(C(C)(C)C)nn2C [CBK265119] | 171.825
O=c1[nH]c2ccc(NS(=O)(=O)c3ccc4c(c3)OCCCO4)cc2[nH]1 [CBK295315] | 142.992
CC(C)NC(=O)c1sc2ccccc2c1C1CN(Cc2c[nH]nc2C(C)(C)C)CCO1 (stereo not drawn) [CBK285535] | 131.126
Ic1ccc(NCc2cn3ccccc3n2)cc1 [CBK058563] | 118.122
Cc1onc(-c2ccccc2)c1C(=O)NNC(=S)NC(=O)c1ccc(Cl)cc1 [CBK267493] | 106.159
Fc1ccc(Cn2nnc(-c3ccncc3)n2)c(Cl)c1 [CBK288534] | 119.566
C(=C\c1ccccc1)/CSc1nnc(CSc2nc3ccccc3s2)n1-c1ccccc1 [CBK264467] | 125.797
Cc1cccc(OCc2nnc(SCC(=O)Nc3cccc4ccccc34)o2)c1C [CBK267153] | 120.311
CC(=O)c1ccc(-c2ccc3ccc(N)nc3n2)cc1 [CBK061862] | 122.912
COc1cc(F)ccc1-c1cnc(N)c2ncccc12 [CBK067585] | 104.827
CCc1c(C)nc2ccc(NC(C)=O)cc2c1SCCC(=O)O [CBK159465T] | 106.715
COc1ccc(-c2nnc(SC(C)c3nnc(-c4ccccc4)o3)n2CC(C)C)cc1 (stereo not drawn) [CBK297108] | 94.2012
O=C(c1ccco1)N1CCC[C@@H]1Cn1c(=O)oc2ccccc21 [CBK284538] | 180.048
O=C(CN1CCC(c2ccccc2F)CC1)N1CCOCC1 [CBK283548] | 119.633
O=C(c1cccc2ncccc12)N1CCC(c2ccncc2)CC1 [CBK283798] | 104.844
COc1ccc(-c2nnc(N)[nH]2)cc1 [CBK028843] | 94.7709

Structure (SMILES) | % of control remaining [%]
COc1ccc(OC)c(NC(=O)COc2ccc(C(C)C)cc2)c1 [CBK263498] | 89.7732
COc1ccc(-c2ccc(/C=N/NC(=O)c3ccncc3)o2)c([N+](=O)[O-])c1 [CBK262156] | 87.972
CCN(CC)C(=O)CN1CCC(Oc2cncc(Oc3ccc(OC)c(OC)c3)n2)C1 (stereo not drawn) [CBK084404] | 97.8092
O=C(OCCC1SC(NC2CC3C=CC2C3)=NC1=O)c1cc(C(F)(F)F)ccc1C(F)(F)F (stereo not drawn) [CBK200058T] | 124.733
O=S(=O)(O)CCCSCCCS(=O)(=O)O [CBK278307N] | 100
Cc1ccccc1NC(=O)NCc1ccccc1 [CBK105833] | 123.415
O=C1CCN([C@H]2C[C@@H](O)[C@@H](CO)O2)C(=O)N1 [CBK201288] | 114.683
COc1cc(F)cc(OC2CCNCC2)c1NC(=O)c1cnccn1 [CBK050296T] | 107.114
CCCCOc1nccnc1-c1ccsc1 [CBK106778] | 100
CSc1nsc(SCC(=O)N2CCN(C(c3ccccc3)c3ccccc3)CC2)n1 [CBK268071] | 118.962
O=C(Cc1ccccc1)Nc1nc(OCC(F)(F)F)cnc1-c1ccsc1 [CBK145298] | 106.691
CC(C)CNc1ccc(-c2cccc(N(C)C)c2)cn1 [CBK037603] | 98.6584
Brc1ccc(C2(c3nnc(C4CC4)o3)CCOCC2)cc1 [CBK305498] | 113.663
CCc1nc2c(OCCOc3ccc(F)cc3)cccn2c1N(C)C(=O)c1ccncc1 [CBK147472] | 147.692
CCOCCN1CCC(C(=O)NC(c2ccc(F)cc2)c2nc(OC)cc(OC)n2)CC1 (stereo not drawn) [CBK148087] | 151.453
Cc1ccccc1CSc1cccc(F)c1 [CBK002913] | 101.176
CC(C)C(=O)N1CC2(CCN(CCCCC3NC(=O)NC3=O)CC2)c2ccccc21 (stereo not drawn) [CBK131471] | 101.915
O=C(c1cccc(Cl)c1)N1CCC(O)(c2cccnc2)CC1 [CBK283553] | 85.9979
O=c1[nH]c(=O)c2ccn([C@H]3C[C@@H](O)[C@@H](CO)O3)c2[nH]1 [CBK201331] | 103.501
CC1CN(C)C(C)CC1OC(=O)C(c1ccccc1)c1ccccc1 (stereo not drawn) [CBK087393] | 111.224
CCN(CC)C(=O)CN1CCCN(c2nccc(OCCN3CCOCC3)n2)CC1 [CBK084094] | 122.252
COc1ccc(Cn2nc(NC(=O)Nc3ccc(N(C)C)cc3)c3ccccc32)cc1 [CBK048529] | 120.994
Cc1ccccc1C(NC(=O)C1CCN(C(=O)N(C)c2ccccc2)CC1)c1ccccn1 (stereo not drawn) [CBK059721] | 80.6511
O=C(O)c1ccc(OCCNS(=O)(=O)c2ccc3oc4ccccc4c3c2)cc1 [CBK299797] | 89.204
COc1ccc(-c2cncc(C3CN(Cc4ccc(C)cc4OC)CCO3)n2)cc1 (stereo not drawn) [CBK286100] | 109.766
O=C(CCCc1ccccn1)N(Cc1ccccn1)C1CCCC1 [CBK282033] | 122.594

Structure (SMILES) | % of control remaining [%]
Cc1ccc(C(=O)N2CCN(S(=O)(=O)c3cccc([N+](=O)[O-])c3)CC2)cc1 [CBK266259] | 118.004
O=C(Cc1ccc(F)cc1)NCCn1nc(-c2ccco2)ccc1=O [CBK283706] | 132.375
CCOC(=O)C1=NN(C)c2cnn(Cc3ccc(Cl)cc3)c(=O)c2C1C(=O)CC(C)C (stereo not drawn) [CBK021389] | 116.913
CC(C)(CO)CNc1nc(-c2ccc(F)cc2)cnc1N [CBK063589] | 170.936
CCCCN(C(C)=O)c1c(CC)nc2ccc(C(=O)NCCCn3ccnc3)cn12 [CBK145759] | 74.9925
COc1ccc(OC)c(/N=C2\CC(=O)CC(C)(C)C2)c1 [CBK020541] | 141.969
O=C1CN(C(=O)NCc2cccc(C(F)(F)F)c2)CCN1 [CBK155850] | 95.1394
CC(NCC(=O)NC1(C#N)CCCCC1)C(C)n1cccn1 (stereo not drawn) [CBK305129] | 129.827
Cn1cc(C(=O)O)c(NC(=O)c2ccccc2Cl)n1 [CBK000353] | 116.614
Cc1ccc(F)cc1C(=O)NCC1CCN(c2cnn(C)c(=O)c2)C1 (stereo not drawn) [CBK307235] | 112.085
Cc1cccc(C(=O)NCCCNC(=O)c2ccncc2)c1 [CBK269572] | 146.372
CCN(CC(C)C#N)C(=O)c1nn(-c2ccccc2)c(C)cc1=O (stereo not drawn) [CBK304925] | 101.023
Cc1nc(C)n(CC2CCCN(CC(=O)NCc3ccccn3)C2)n1 (stereo not drawn) [CBK305291] | 130.326
CC(=O)Nc1ccc(-c2cccc(COC3CCN(C(=O)Cc4ccc(C#N)cc4)CC3)c2)cc1 [CBK149495] | 91.6631
COc1ccccc1C(=O)N1CCC(Cc2ccccc2-c2ccccc2)(C(N)=O)CC1 [CBK285739] | 125.203
Cc1cccc(OCc2nnc(SCC(=O)NC3CCCCC3)o2)c1 [CBK264652] | 100
Cc1nc(-c2ccccc2)cc([C@H]2CN3CC[C@H]2C[C@@H]3CNC(=O)NC(C)C)n1 [CBK289126] | 129.003
OC1(c2ccc(F)cc2)CC2CCC(C1)N2 (stereo not drawn) [CBK281947] | 144.646
O=C(Nc1ccccc1)c1onc2c1CCCC2 [CBK058703] | 114.817
O=[N+]([O-])c1cc(C(F)(F)F)ccc1NCCNC(=S)Nc1ccc(Cl)cc1 [CBK263578] | 71.2625
O=C(CN1C(=O)c2ccccc2C1=O)NCC1COc2ccccc2O1 (stereo not drawn) [CBK222526] | 182.263
O=C(NCC1(c2ccccc2Cl)CC1)c1ccc(=O)n(CC(=O)N2CCCCC2)c1 [CBK286077] | 104.255
Cc1c(Cl)cccc1S(=O)(=O)N1CCCN(c2nc3ccc(Cl)cc3s2)CC1 [CBK014131] | 114.815
O=c1c(N2CCCNCC2)nccn1CCOc1ccc(Br)cc1 [CBK028613T] | 117.586
O=C(c1ccncc1)n1nc(NCc2ccccc2)nc1NCc1ccccc1 [CBK269069] | 125.149
CCOc1ccc2cc(C3CC(c4ccc(C)cc4)=NN3C(=O)CCC(=O)O)c(Cl)nc2c1 (stereo not drawn) [CBK297508] | 121.869

Rewritten as comma-separated lines: part of the list above
Structure (SMILES),% of control remaining [%]
CC(NCC(=O)NC1(C#N)CCCCC1)C(C)n1cccn1 (stereo not drawn) [CBK305129],129.827
COc1ccccc1C(=O)N1CCC(Cc2ccccc2-c2ccccc2)(C(N)=O)CC1 [CBK285739],125.203
OC1(c2ccc(F)cc2)CC2CCC(C1)N2 (stereo not drawn) [CBK281947],144.646
Cc1c(Cl)cccc1S(=O)(=O)N1CCCN(c2nc3ccc(Cl)cc3s2)CC1 [CBK014131],114.815
CCOc1ccc2cc(C3CC(c4ccc(C)cc4)=NN3C(=O)CCC(=O)O)c(Cl)nc2c1 (stereo not drawn) [CBK297508],121.869
